Experimental findings from article PMC12591178 are described below.

Chains of the proteins cited; added tags and fusions are not shown.
UniProt P42227: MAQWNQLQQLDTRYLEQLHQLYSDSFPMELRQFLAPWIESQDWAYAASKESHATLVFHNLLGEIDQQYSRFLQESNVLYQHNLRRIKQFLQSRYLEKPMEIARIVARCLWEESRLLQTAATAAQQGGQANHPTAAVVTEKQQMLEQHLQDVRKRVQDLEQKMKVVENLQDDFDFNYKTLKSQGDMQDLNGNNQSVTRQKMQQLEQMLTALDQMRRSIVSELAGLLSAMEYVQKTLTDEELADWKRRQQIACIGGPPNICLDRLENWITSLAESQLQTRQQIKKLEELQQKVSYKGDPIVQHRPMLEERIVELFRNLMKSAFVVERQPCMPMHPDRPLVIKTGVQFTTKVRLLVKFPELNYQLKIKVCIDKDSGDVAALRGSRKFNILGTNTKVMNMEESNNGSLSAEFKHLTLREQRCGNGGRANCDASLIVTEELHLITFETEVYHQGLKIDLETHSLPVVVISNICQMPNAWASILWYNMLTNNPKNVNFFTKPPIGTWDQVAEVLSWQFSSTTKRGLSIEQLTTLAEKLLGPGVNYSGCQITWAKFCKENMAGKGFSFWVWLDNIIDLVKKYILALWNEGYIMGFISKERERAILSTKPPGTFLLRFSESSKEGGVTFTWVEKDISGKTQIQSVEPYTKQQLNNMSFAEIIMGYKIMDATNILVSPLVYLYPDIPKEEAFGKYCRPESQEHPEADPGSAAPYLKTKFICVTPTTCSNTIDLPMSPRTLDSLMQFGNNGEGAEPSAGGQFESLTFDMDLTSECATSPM
UniProt P37238: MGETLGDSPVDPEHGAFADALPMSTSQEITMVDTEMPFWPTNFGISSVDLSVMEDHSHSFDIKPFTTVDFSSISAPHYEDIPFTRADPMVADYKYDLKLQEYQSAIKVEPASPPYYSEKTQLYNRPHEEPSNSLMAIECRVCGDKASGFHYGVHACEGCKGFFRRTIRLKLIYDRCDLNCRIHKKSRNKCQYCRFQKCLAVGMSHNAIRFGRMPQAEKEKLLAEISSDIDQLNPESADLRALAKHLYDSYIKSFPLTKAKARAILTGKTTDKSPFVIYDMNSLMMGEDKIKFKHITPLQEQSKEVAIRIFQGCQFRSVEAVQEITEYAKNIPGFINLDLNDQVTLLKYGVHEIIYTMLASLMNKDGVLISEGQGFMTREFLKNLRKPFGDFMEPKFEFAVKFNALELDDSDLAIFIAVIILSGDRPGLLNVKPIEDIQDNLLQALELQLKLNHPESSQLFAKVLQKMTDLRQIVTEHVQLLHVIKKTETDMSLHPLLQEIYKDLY

Experiment [1] concerns the target phosphorylated STAT3 (p-STAT3) (UniProt P42227). Kind of experiment: co-IP; co-IP among PPP1R3B, PPAR-γ, p-GSK-3β and p-STAT3 (Figure 5A); cells, baits and conditions not shown.
Experiment [2] addresses T1, PPP1R3B of the GST pull-down assay (UniProt Q8C767).
T1 sequence: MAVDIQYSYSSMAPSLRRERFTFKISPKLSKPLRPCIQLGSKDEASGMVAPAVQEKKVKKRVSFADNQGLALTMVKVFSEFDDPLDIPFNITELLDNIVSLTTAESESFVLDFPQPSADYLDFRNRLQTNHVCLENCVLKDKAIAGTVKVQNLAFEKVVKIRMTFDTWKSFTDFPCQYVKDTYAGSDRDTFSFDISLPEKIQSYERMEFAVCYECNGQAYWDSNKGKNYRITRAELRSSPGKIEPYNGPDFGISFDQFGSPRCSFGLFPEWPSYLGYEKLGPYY
Kind of experiment: pull-down; GST pull-down of PPP1R3B and endogenously phosphorylated STAT3 (Figure S14); conditions not shown; only the target purified.

Experiment [3] concerns the target T2, protein phosphatase 1 regulatory subunit 3B (PPP1R3B) (UniProt Q8C767).
T2 sequence: T1 sequence
Kind of experiment: co-IP; co-IP among PPP1R3B, PPAR-γ, p-GSK-3β and p-STAT3 (Figure 5A); cells, baits and conditions not shown.

Results are given in words; binding and its absence hold for the method and conditions named. In cells and extracts the contact can be indirect. Some results given as binding are weak or reduced against the parent protein; the word gives no strength. For part of these data: Tags and fused reporters may be left off the sequences shown.

With “peroxisome proliferator-activated receptor gamma (PPARG/PPAR-γ) (from UniProt P37238 1-505)”, the binding result in experiment [1] is given as “binds”.
Turning to “phosphorylated STAT3 (p-STAT3) (from UniProt P42227 1-770)”, the binding entry in experiment [2] and in experiment [3] was “binds” throughout.
